Values quoted from earlier work in patent US20100234386A1, “QUINOXALINE DERIVATIVES AS PI3 KINASE INHIBITORS” (priority 2007, published 2010).
Read-outs that look alike come from different tables or passages of the source. For at least one compound, name, drawing or mass did not settle the structure.

Tested on: Class I PI3-kinases
Details: cited from earlier work

In the case of `COC[C@H]1OC(=O)c2coc3c2[C@@]1(C)C1=C(C3=O)[C@@H]2CCC(=O)[C@@]2(C)C[C@H]1OC(C)=O` [wortmannin], the IC50 (read-out: IC50 values against each of the various Class I PI3-kinases) is given as 0.001 to 0.01 µM.
In the case of `O=c1cc(N2CCOCC2)oc2c(-c3ccccc3)cccc12` [LY294002], the IC50 (Fruman et al. 1998, read-out: IC50 values against each of these PI3-kinases) is listed as 15 to 20 µM.
